# Data as given in patent US8076302B2, “Pyrimidine nucleoside derivatives and salts thereof” (aRigen Pharmaceuticals, Inc., priority 2007, dated 2011).
# Values joined by “and” are separate entries in the source; they are usually repeats but may differ in a detail not shown here. Identical values can stand only once. Counter-ions that a name gives are not always drawn. At least one structure is not confirmed: it was looked up by name or label, or the drawing left a doubt.
# System: HSV-1 infection in mouse skin
# Experiment: In vivo antiviral test, HSV-1 mouse skin infection model (creams)
# Conditions: HSV-1-infected mice, cream; for Average lesion score (FIG. 1): compared to control group treated with no drug; for Survival rate: survivors/total animals, chi-square test vs control
# Method: Creams were prepared for the compounds of the present invention according to Formulation Example 2 and tested for their therapeutic effect on HSV-1 infection in mouse skin. Moreover, skin symptoms in the HSV-1-infected mice were scored (Antiviral Research, 17, 133-143, 1992), and the time course of changes in their average lesion scores is shown in FIG. 1.
# According to the ratio indicated above, creams were prepared in a routine manner and provided for Pharmacological Test Example 2.
SMILES,"Incidence rate (affected/total animals, hydrochloride)",Average lesion score (FIG. 1),Survival rate (hydrochloride)
"O=C(OCC1OC(n2cc(/C=C/Cl)c(=O)[nH]c2=O)C(O)C1O)C1CCNCC1 [Compound 1, (E)-5-(2-chlorovinyl)-1-[5′-O-(piperidine-4-carboxyl)-β-D-arabinofuranosyl]uracil hydrochloride]",reduce the incidence rate,a reduction in the lesion score,significant increase in the survival rate and 7/8 P < 0.01^a
"CC(C)C(N)C(=O)OCC1OC(n2cc(/C=C/Cl)c(=O)[nH]c2=O)C(O)C1O [Compound 2, 1-[5′-0-(L-valine)-β-D-arabinofuranosyl]-(E)-5-(2-chlorovinyl)uracil hydrochloride]",–,a reduction in the lesion score,significant increase in the survival rate and 7/8 P < 0.01
